Measurements published in PubChem BioAssay AID493014 (National Center for Advancing Translational Sciences (NCATS), 2011).
The list shows a part of the results. The main result of the screen is listed elsewhere. These columns were measured beside it and carry no call. Compounds called inactive in the main read-out are mostly missing here. The note in brackets gives the kind of curve behind each potency; many fits are weak.

Experiment: qHTS Assay to Find Inhibitors of Chronic Active B-Cell Receptor Signaling
Conditions: ABC-DLBCL IkBa-CBG/CBR reporter, luminescence ratio (green luciferase fused to IkBa over red control in TMD8 lymphoma cells), 4 h
Procedure, shortened: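 TMD8 ABC-DLBCL cells carrying doxycycline-inducible green luciferase fused to IkappaBalpha plus unfused red luciferase were exposed to compounds (up to 46 uM) for 4 hrs at 37C. Activity came from the overlap-corrected green/red luminescence ratio.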

[1] = measured here: CBR red luminescence, cell number

Compound	AC50 [1]	AC50 (measured here: IkBa-CBG green luminescence)
CCCC/C(O)=C1\C(=O)CCCC1=NCCc1c(C)[nH]c2ccccc12	22.4 µM [falling, single point]	
COc1ccc(OC)c(NC(=O)CSC2=Nc3ccccc3C3=NC(CC(=O)NCc4ccc5c(c4)OCO5)C(=O)N23)c1 (stereo not given)	35.5 µM [falling, single point]	
O=C(OCc1ccccc1)c1ccccc1O	29.1 µM [rising, single point]	
O=C1CSC(=S)N1c1ccc(F)cc1	35.5 µM [falling, single point]	
CCOC(=O)c1c(C)oc2ccc(NS(=O)(=O)c3ccc4c5c(cccc35)C(=O)N4)cc12	18.4 µM [falling, single point]	
CCc1cc2c(=O)n(Cc3ccco3)c(SCc3c(C)noc3C)nc2s1	29.1 µM [falling, single point]	
O=C(Nc1nnc(S(=O)(=O)N2CCOCC2)s1)c1ccccc1	6.31 µM [rising, single point]	
N#Cc1nc(Cc2ccccc2)oc1N1CCCC1	5.62 µM [rising, full curve, poor fit]	
COc1ccc2c(c1)-c1nc(/N=C/c3c(O)ccc4ccccc34)sc1CC2	4.61 µM [falling, full curve]	
COc1cc2c(cc1NC(=O)CSc1nnc(Cc3cccs3)n1Cc1ccco1)oc1ccccc12	0.146 µM [falling, full curve]	
CCN(CCCNC(=O)c1ccc2c(c1)NC(=O)CN2C)c1cccc(C)c1	10 µM [falling, partial curve]	
Cc1cc(O)c(-c2cc(C(=O)NCCc3ccc(S(N)(=O)=O)cc3)[nH]n2)cc1C	12.6 µM [rising, single point]	
O=C(N/N=C/c1ccc(O)cc1O)NC12CC3CC(CC(C3)C1)C2	7.94 µM [falling, partial curve]	
COc1ccc(CCNC(=O)CCCOc2cc(=O)n(C)c3ccccc23)cc1OC	1.78 µM [rising, full curve]	
CNc1ccc(S(=O)(=O)NC)cc1[N+](=O)[O-]	35.5 µM [rising, partial curve, poor fit]	
O=C(CCN1CCOCC1)c1ccc(Br)cc1	35.5 µM [falling, single point]	
NC(=O)c1ccccc1OCc1nc2ccccc2s1	11.2 µM [falling, partial curve, poor fit]	
O=S(=O)(c1ccc(SCCO)nc1)N1CCOCC1	1.16 µM [falling, partial curve, poor fit]	
O=[N+]([O-])c1ccc(S(=O)(=O)Nc2cccc(-c3ccc(N4CCCC4)nn3)c2)cc1	23.1 µM [rising, single point]	
CC(=O)c1cccc(NC(=O)Cc2cccs2)c1	4.47 µM [rising, partial curve, poor fit]	
Cc1csc(NC(=O)CCC(=O)c2cccs2)n1	35.5 µM [falling, single point]	
O=C(Nc1nc(-c2ccncc2)cs1)c1ccc(S(=O)(=O)N2CCOCC2)cc1	2.82 µM [falling, partial curve]	

Compound	AC50 [1]	AC50 (measured here: IkBa-CBG green luminescence)
CC1=NN(C(=O)CSCc2ccccc2)C(O)(c2ccc(F)cc2)C1 (stereo not given)	0.562 µM [falling, full curve]	
Cc1ccc(NC(=O)CN2C(=O)S/C(=C/c3ccc(O)c([N+](=O)[O-])c3)C2=O)cc1C	1.26 µM [falling, full curve]	
O=C(COc1ccc2c3c(c(=O)oc2c1)CCC3)NCc1ccncc1	2.82 µM [rising, full curve, poor fit]	
Cc1[nH]c(C)c(C(=O)/C=C/c2ccc([N+](=O)[O-])cc2)c1C	20 µM [falling, single point]	
CCOc1ccc(/C=C2/SC(=S)N(CCC(=O)Nc3ccc(C(=O)O)cc3)C2=O)cc1	11.2 µM [falling, partial curve, poor fit]	
COc1cc(/C=C/c2[nH]c(=O)[nH]c(=O)c2[N+](=O)[O-])cc(OC)c1O	35.5 µM [rising, single point]	
Cn1c(=O)c2c(ncn2CCC(=O)N/N=C/c2ccncc2)n(C)c1=O	2 µM [rising, full curve, poor fit]	
CN(C1CCCCC1)S(=O)(=O)Cc1ccccc1	35.5 µM [rising, single point]	
O=C(Nc1ccc(Cl)cc1F)c1ccc(COc2c(F)c(F)c(F)c(F)c2F)o1	4.47 µM [falling, partial curve, poor fit]	
Cc1[nH]n(C(N)=S)c(=O)c1N=Nc1ccccc1C(F)(F)F	0.891 µM [rising, full curve, poor fit]	
O=C(O)c1cccnc1SCc1cccc(Br)c1	8.91 µM [rising, partial curve, poor fit]	
Cc1cc2nc3c(c(C(F)(F)F)n2n1)CCCC3	17.8 µM [rising, partial curve, poor fit]	
O=C(NCCc1ccc2c(c1)OCCO2)c1ccccc1F	8.2 µM [falling, partial curve, poor fit]	
C#CCn1c(=NC(=O)c2ccc(S(=O)(=O)N3CCc4ccccc4C3)cc2)sc2cc(S(N)(=O)=O)ccc21	5.8 µM [rising, single point]	6.51 µM [falling, single point]
COc1cccc(C(=O)Nc2c(F)cccc2F)c1	6.31 µM [falling, full curve, poor fit]	
CC1CCCN(c2ccc(/C=C(\C#N)c3nn(-c4ccccc4)c(N)c3C#N)cc2[N+](=O)[O-])C1 (stereo not given)	3.55 µM [rising, partial curve]	
O=C(NCc1ccco1)c1cc2c(s1)CCCCC2	13 µM [falling, partial curve, poor fit]	
CCc1ccc(C(=O)Nc2ccc(OC)c(S(=O)(=O)N3CCCCC3)c2)cc1	23.1 µM [falling, partial curve, poor fit]	
COc1cccc(-n2c(=O)n(Cc3ccccc3)c(=O)c3[nH]cnc32)c1C	11.2 µM [rising, partial curve]	
Cc1ccc(NC(=O)C2C(=O)N(CCO)C3(C)CC2c2ccccc2O3)cc1 (stereo not given)	29.1 µM [rising, single point]	
CN(C)c1ccc(C(=O)/C=C/c2ccccc2)cc1	2 µM [falling, full curve]	
O=C(COc1ccc2ccc(=O)oc2c1)c1ccccc1	12.6 µM [falling, single point]	

Laid out differently: entries from further up
COc1cc(/C=C/c2[nH]c(=O)[nH]c(=O)c2[N+](=O)[O-])cc(OC)c1O
  AC50 [1]: 35.5 µM [rising, single point]
Cn1c(=O)c2c(ncn2CCC(=O)N/N=C/c2ccncc2)n(C)c1=O
  AC50 [1]: 2 µM [rising, full curve, poor fit]

Remaining list, next part.

Compound	AC50 [1]	AC50 (measured here: IkBa-CBG green luminescence)
COC(=O)C1=C(C)NC(C)=C(C(=O)OC)C1c1ccc(OC(=O)c2ccco2)cc1	35.5 µM [falling, single point]	
O=C(Nc1ccc(F)cc1)C(=O)c1cn(CC(=O)N2CCOCC2)c2ccccc12	0.251 µM [falling, full curve]	
CC(=O)N1N=C(c2ccc(C)cc2)OC1c1cccnc1 (stereo not given)	5.62 µM [rising, full curve, poor fit]	
COc1ccc(/C(C)=N/Nc2cccc(C(=O)O)c2)cc1OC	1.41 µM [falling, full curve]	
CCCC(=O)Nc1nc(C)c(-c2csc(Nc3ccccc3C)n2)s1	0.708 µM [rising, full curve, poor fit]	
COc1ccc(/C=C/C(=O)Nc2ccccc2C(F)(F)F)cc1OC	14.1 µM [falling, partial curve, poor fit]	
Clc1ccc(-c2nc3ncccn3c2Nc2ccc3c(c2)OCO3)cc1	35.5 µM [falling, single point]	
Cc1ccc(C)c(S(=O)(=O)N2CCCC2CNC(=O)C(=O)NCC2CCCO2)c1 (stereo not given)	8.2 µM [rising, partial curve, poor fit]	
CCOC(=O)c1cc2c(C)[nH]c(C)c2cc(C(=O)OCC)c1=O	3.98 µM [rising, single point]	
CCn1c(=O)n(CC)c2cc(S(=O)(=O)Nc3c(C)cccc3C)ccc21	3.26 µM [rising, single point]	
COc1cc(C(=O)N/N=C/c2ccc(OC(=O)c3cccc(C)c3)c(OC)c2)ccc1O	7.94 µM [rising, partial curve, poor fit]	
CC1(C(=O)OCC(=O)Nc2ncc(Cl)cc2Cl)CC1(Cl)Cl (stereo not given)	9.2 µM [rising, partial curve, poor fit]	
COc1ccc(C(=O)Nc2nc3ccccc3[nH]2)cc1OC	8.2 µM [falling, partial curve]	
COc1ccc(C(CNC(=O)C(C)c2ccc3cc(OC)ccc3c2)N(C)C)cc1 (stereo not given)	35.5 µM [falling, single point]	
COc1ccc(/C=C/C(=O)NCC2COc3ccccc3O2)cc1OC (stereo not given)	7.94 µM [falling, partial curve, poor fit]	
O=C(Nc1ccc2c(c1)OCO2)c1cc2nc(C3CC3)cc(C(F)(F)F)n2n1	0.112 µM [rising, full curve, poor fit]	
Cc1cc(C=O)c(C)n1-c1ccc(NC2CCCC2)c([N+](=O)[O-])c1	1.41 µM [rising, full curve, poor fit]	
CC1CCN(c2ccc(-c3cccc(NC(=O)c4ccco4)c3)nn2)CC1	7.31 µM [falling, partial curve]	
c1ccc(C2=NNC(=NCc3ccc4c(c3)OCO4)SC2)cc1	8.2 µM [falling, partial curve, poor fit]	
COCCN1C(=O)C(CC(=O)Nc2ccc(C(=O)O)cc2)SC1=Nc1ccccc1 (stereo not given)	0.0058 µM [falling, full curve, poor fit]	
